These results are taken from publication PMC4678828, “Binding dynamics of a monomeric SSB protein to DNA: a single-molecule multi-process approach”.

Construct, isoform or probe ends are uncertain for at least one entry. For part of these data: Weaker means in comparison with the reference protein, sequence or condition of that experiment. Tags and fusion partners may be left off the protein sequences shown. For part of these data: At least one verdict was read from the data and is not stated in words by the source.

The target in data set [1] is T1, A114R1 SsoSSB (MTSSL spin label) (Sulfolobus solfataricus) (UniProt Q97W73).
T1 sequence (looked up, limits assumed): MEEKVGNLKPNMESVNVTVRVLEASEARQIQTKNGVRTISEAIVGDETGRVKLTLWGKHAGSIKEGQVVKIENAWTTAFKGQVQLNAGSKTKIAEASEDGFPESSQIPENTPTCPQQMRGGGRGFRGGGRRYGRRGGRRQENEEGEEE
Put plainly: EPR (PELDOR). As to conditions: 100 uM protein, 50 uM ssDNA, modulation depth increased; 50 mM Tris-HCl pH 7.6, 10 mM KCl, 5% glycerol, 0.1 mg/ml BSA, 5-50 nM DNA, 20 C (PIFE also 65 C); recombinant protein; protein details: MTSSL spin label at C114; single-stranded DNA.

In data set [2] the target is T2, A647-SsoSSB A114C (Sulfolobus solfataricus) (UniProt Q97W73).
T2 sequence (looked up, limits assumed): T1 sequence (looked up, limits assumed)
The data set can be described thus: single-molecule FRET. As to conditions: 150 mM KCl, 10 nM protein, lower binding frequency; 50 mM Tris-HCl pH 7.6, 10 mM KCl, 5% glycerol, 0.1 mg/ml BSA, 5-50 nM DNA, 20 C (PIFE also 65 C); recombinant protein; protein details: Alexa Fluor 647 C2 maleimide at C114; label: 5' biotin, 3' Cy3; single-stranded DNA.

As to CCCCCCCCCCC [dC11], in data set [1], the binding result is “binds”. For the sequence CCCCCCCCCCCC [BidC12Cy3], the binding result in data set [2] was “binds more weakly”. Consider TTTTTTTTTTTTT [dT13], for which, in data set [1], the binding result is reported as “binds”.
